Laboratory results: patent US20120252691

The chains behind the UniProt entries cited, without tags or fusion partners.
UniProt P11940, whole entry: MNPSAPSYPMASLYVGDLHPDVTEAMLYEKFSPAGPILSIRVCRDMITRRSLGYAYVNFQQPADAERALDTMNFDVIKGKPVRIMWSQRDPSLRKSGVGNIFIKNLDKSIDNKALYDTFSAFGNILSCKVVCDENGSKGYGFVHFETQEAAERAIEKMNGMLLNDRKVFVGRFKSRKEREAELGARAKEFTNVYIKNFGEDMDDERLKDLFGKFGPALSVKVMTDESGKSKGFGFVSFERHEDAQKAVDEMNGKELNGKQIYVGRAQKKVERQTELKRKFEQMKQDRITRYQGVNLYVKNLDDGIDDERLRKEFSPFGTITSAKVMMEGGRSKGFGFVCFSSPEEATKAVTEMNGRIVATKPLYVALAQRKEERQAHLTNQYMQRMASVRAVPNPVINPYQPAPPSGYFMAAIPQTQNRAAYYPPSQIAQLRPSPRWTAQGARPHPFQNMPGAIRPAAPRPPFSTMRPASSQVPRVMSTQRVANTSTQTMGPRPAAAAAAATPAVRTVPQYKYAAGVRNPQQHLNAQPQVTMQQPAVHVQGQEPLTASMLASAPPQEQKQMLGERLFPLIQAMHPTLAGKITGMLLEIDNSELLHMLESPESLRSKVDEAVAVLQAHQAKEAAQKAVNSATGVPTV

Target: PABPC1 (Poly(A) binding protein) (Homo sapiens) (UniProt P11940)
Experiment: pull-down
Details: 10 mM Tris pH 7.5, 2.5 mM MgCl2, 10 mM KCl, 15% glycerol, 0.5% Tween-20, tRNA, 4 C; protein in an extract; protein details: endogenous, HEK 293 cell lysate; label: 3'-desthiobiotin-PEG4-alkane-cytidine

“AAAAAAAAAAAAAAAAAAAAAAAAA [Poly(A)25 RNA, desthiobiotin]”: binds.

Construct, isoform or probe ends are uncertain for at least one entry. Results from cells or extracts need not show a direct contact.
